# Data: patent publication EP0444898A1 (MERCK & CO. INC., priority 1990, dated 1991)
# “And” between values parts separate entries of the source, which are not always exact repeats. Equal entries are not always repeated.
# Experiments:
# [1] = general procedure: Boc solid-phase peptide synthesis; chloromethylated resin (Merrifield resin); Boc-L-Pro-O-(PAM)-resin; BOP reagent/DIEA for some couplings; acid chloride coupling; settings: for isolated mass: scale 1 mmole
# [2] = general procedure: Boc solid-phase peptide synthesis; Boc-L-Pro-O-(PAM)-resin; BOP reagent/DIEA for some couplings; acid chloride coupling; settings: whole synthesis
# [3] = general procedure: Boc solid-phase peptide synthesis; Boc-L-Pro-(Merrifield)-resin; BOP reagent/DIEA for some couplings; acid chloride coupling; settings: whole synthesis, head-to-tail ring
# [4] = whole synthesis, HPLC (Method G), scale of the general procedure 1 mmole
# [5] = whole synthesis, scale of the general procedure 1 mmole
# [6] = whole synthesis, HPLC (Method G), scale of the general procedure 1 mmole, head-to-tail ring
# [7] = whole synthesis, scale of the general procedure 1 mmole, head-to-tail ring
# [8] = scale 1 mmole, head-to-tail ring
# [9] = whole synthesis, 214 nM, scale of the general procedure 1 mmole, head-to-tail ring
# [10] = late stage modification step, HPLC (Method G), head-to-tail ring
# [11] = late stage modification step, HPLC (Method G)
substance,measurement,setting,value
C-[D-(O-t-Bu)-Tyr-L-lle-D-Pip-L-(Boc)Lys-D-(N-Me)Phe-L-Pro],final HPLC purity,[1]; [4],99%
same,isolated yield,[1]; [5],73%
same,isolated mass,[2]; scale 0.5 mmole,700 mg
c-[D-Phenylalanyl-L-isoleucinyl-D-pipecolyl-L-pipecolyl-D-(β-t-butyl)aspartyl-L-prolyl],final HPLC purity,[3]; 214 nM,>98%
c-[D-Tryptophanyl-L-isoleucinyl-D-pipecolyl-D-piperazin-2-yl(4-Cbz)-D-(Nα-methyl)phenylalanyl-L-prolyl],final HPLC purity,[3]; 210 nM,>98%
C-[D-Phe-L-Phe-D-Pip-L-Pip-N-Me-D-Phe-L-Pro],final HPLC purity,[1]; [6],95%
same,isolated yield,[1]; [7],45%
same,isolated mass,[2]; [8],348 mg
c-[D-2-Naphthylalanyl-L-isoleucinyl-D-pipecolyl-L-piperazin-2-yl (4-Cbz)-D-(Na-methyl)-phenylalanyl-L-prolyl],final HPLC purity,[3]; 214 nM,>98%
cyclo[D-Ala-L-Ile-D-Pip-L-Pip-D-Phe-L-Pro],final HPLC purity,[1]; [4],purity 99%
same,isolated yield,[1]; [5],70%
same,isolated mass,[2]; scale 1 mmole,452 mg
c-[D-Trp-L-HomoPhe-D-Pip-L-Pip-D-(NMe)Phe-L-Pro],final HPLC purity,[1]; [6],99%
same,isolated mass,[2]; [8],520 mg
same,isolated yield,[2]; [8],63%
c-[D-Trp-L-Phe-D-Pip-L-Pip-D-(NMe)Phe-L-Pro],final HPLC purity,[1]; [6],99%
same,isolated yield,[1]; [7],75%
same,isolated mass,[2]; [8],611 mg
c-[D-Tryptophanyl-L-isoleucinyl-D-pipecolyl-L-pipecolyl-D-(β-t-butyl)aspartyl-L-prolyl],final HPLC purity,[3]; 214 nM,>95%
C-[D-2-Nal-L-Ile-D-Pip-L-(Boc)-Lys-D-(N-Me)Phe-L-Pro],final HPLC purity,[1]; [4],99%
same,isolated yield,[1]; [5],66%
same,isolated mass,[2]; scale 1 mmole,300 mg
C-[D-O-Bzl)-Tyr-L-Ile-D-Pip-L-(Boc)Lys-D-(N-Me)Phe-L-Pro],final HPLC purity,[1]; [4],99%
same,isolated yield,[1]; [5],73%
same,isolated mass,[2]; scale 1 mmole,700 mg
c-[D-(O-Ethyl)-tyrosyl-L-isoleucyl-D-(O-tert-butyl)-threonyl-L-asparapyl-D-phenylalanyl-L-prolyl],final HPLC purity,[1]; [6],98.6% pure
c-[D-Phenylalanyl-L-isoleucinyl-D-prolyl-L-cis-hydroxyprolyl-D-phenylalanyl-L-prolyl],final HPLC purity,[1]; [9],98%
c-[D-Phenylafanyt-L-isoleucyl-D-prolyl-L-prolyl-D-α-glutaminyl-L-prolyl],final HPLC purity,[1]; [9],99%
cyclo[D-Phe-L-Ile-D-Pip-L-His-D-(NαMe)Phe-L-Pro],final HPLC purity,[1]; [4],purity 98.5%
same,isolated mass,[1]; whole synthesis,42 mg
same,isolated yield,[1]; [5],5%
c-[D-phenylalanyl-L-isoleucyl-D-pipecolyl-L-pipecolyl-N-methyl-D-phenylalanyl-N-methyl-L-alanyl],final HPLC purity,[1]; [6],95.1% pure
cyclo[D-Phe-L-Ile-D-Pip-L-Pip-D-(NαMe)Ala-L-Pro],final HPLC purity,[1]; [4],purity 99%
same,isolated mass,[1]; whole synthesis,340 mg
same,isolated yield,[1]; [5],44%
c-[D-Tryptophanyl-L-isoleucinyl-D-prolyl-L-histidyl-D-histidyl-L-prolyl],final HPLC purity,[3]; 210 nM,99.7%
c-[D-Tryptophanyl-L-isoleucinyl-D-Δ-piperazyl-L-piperazin-2-yl(4-Cbz)-N-Me-D-phenylalanyl-L-prolyl],final HPLC purity,"[1]; whole synthesis, 259 nM, scale of the general procedure 1 mmole, head-to-tail ring",>98.4%
cyclo[D-Trp-L-Nle-D-Pip-L-Pip-D-His-L-Pro],final HPLC purity,[1]; [4],purity 99%
same,isolated mass,[1]; whole synthesis,252 mg
same,isolated yield,[1]; [5],29%
C-[D-Phenylalanyl-L-isoleucyl-D-Δ-piperazyl-L-(N^ε-t-Butyloxycarbonyl)-Lysl-M-Me-D-phenylalanyl-L-prolyl],final HPLC purity,[1]; [4],>94%
c-[N-Me-D-Homophenylaianyl-N-Me-L-isoleucyl-D-pipecolyl-N-Me-D-phenylalanyl-L-prolyi],final HPLC purity,"[1]; late stage modification step, 215 nM, head-to-tail ring",>97.5%
same,step yield,"[1]; late stage modification step, head-to-tail ring",22.5%
c-[D-Phenylalanyl-L-isoleucyl-D-prolyl-dehydroalanyl-N-methyl-D-phenylalanyl-L-prolyl],final HPLC purity,[1]; [10],98.2% pure
c-[D-Phenylalanyl-L-isoleucinyl-D-pipecolyl-D-piperazin-2-yl-D-phenylalanyl-L-prolyl],final HPLC purity,"[1]; late stage modification step, 214 nM, head-to-tail ring",>99%
"cyclo[D-Phe-L-Ile-D-(3,4-dehydro)-Pip-L-Pip-D-(NαMe)Phe-L-Pro]",final HPLC purity,[1]; [4],purity 98.5%
same,isolated mass,[1]; whole synthesis,320 mg
same,isolated yield,[1]; [5],45%
Cydo[D-Trp-L-Ile-D-Pip-L-(Cbz)Orn-D-(N^αMe)-Phe-L-Pro],final HPLC purity,[1]; [4],99%
same,isolated mass,[1]; whole synthesis,500 mg
same,isolated yield,[1]; [5],54%
Cyclo[D-Trp-L-Ile-D-Pip-L-(Cbz)Om-D-Trp-L-Pro],final HPLC purity,[1]; [4],99%
same,isolated mass,[1]; whole synthesis,370 mg
same,isolated yield,[1]; [5],39%
c-[D-Tryptophanyl-L-isoleucinyl-D-Δ-piperazyl-L-piperazin-2-yl-N^α-Me-D-phenylalanyl-L-prolyl],final HPLC purity,[1]; [11],>96%
c-[D-Phenylalanyl-L-isoleucyl-N-methyl-D-alanyl-N-methyl-L-alanyl-D-phenylalanyl-L-prolyl],final HPLC purity,"[1]; whole synthesis, 210 nM, scale of the general procedure 1 mmole, head-to-tail ring",99%
cyclo[D-His-L-Ile-D-Pip-L-Pip-D-(NαMe)Phe-L-Pro],final HPLC purity,[1]; [4],purity 99%
same,isolated mass,[1]; whole synthesis,242 mg
same,isolated yield,[1]; [5],26%
c-[D-Phenylalanyl-N-methyl-L-isoleucyl-D-pipecolyl-L-pipecolyl-N-methyl-D-phenylalanyl-L-prolyl],final HPLC purity,[1]; [6],98.4% pure
cyclo[D-Phe-L-Ile-D-Pip-L-Pip-3-PyrAla-L-Pro] isomer 1,final HPLC purity,[1]; [4],purity 97%
same,isolated mass,[1]; whole synthesis,31 mg
same,isolated yield,[1]; [5],4%
c-[D-Phenylalanyl-L-isoleucinyl-D-pipecolyl-L-piperazin-2-yl-D-histidinyl (BOM)-L-prolyl],final HPLC purity,[1]; [10],>96%
c-[D-Phenylalanyl-L-isoleucyl-D-pipecolyl-Nβ-(imidazolylethyl)-L-asparagyl-N-methyl-D-phenylalanyl-L-protyl],final HPLC purity,[1]; [10],99.4% pure
Fmoc-L-isoleucyl-D-pipecolyl-L-pipecolyl-N-methyl-D-phenylalanyl-benzyl ester,final HPLC purity,[1]; [4],95.2% pure
c-[D-2-Nal-L-Ile-D-Pip-D-Pipe-D-His-L-Pro],step yield,[1]; late stage modification step,53%
same,final HPLC purity,[1]; [11],95%
cyclo[D-2-Nal-L-Ile-D-Pip-L-Pip-D-His-L-Pro],final HPLC purity,[1]; [4],purity 99%
same,isolated mass,[1]; whole synthesis,120 mg
same,isolated yield,[1]; [5],12%
c-[D-2-Napthylalanyl-L-isoleucyl-D-pipecolyl-L-[N-(1-methyl-quinuclidinium-3-yl-carbonyl)]lysyl-D-(N-methyl)phenylalanyl-L-prolyl],step yield,[1]; late stage modification step,48%
same,final HPLC purity,[1]; [11],99%
"c-[D,L-(5-Me)Trp-L-Ile-D-Pip-L-Pip-D-His-L-Pro] lower Rf isomer",final HPLC purity,[1]; [4],98%
c-[D-Phenylalanyl-L-isoleucinyl-D-prolyl-L-piperazin-2-yl-D-phenylalanyl-L-prolyl],final HPLC purity,"[1]; late stage modification step, 254 nM, head-to-tail ring",> 97%
"Cyclo[D-phenylalanyl-L-isoleucyl-D-pipecolyl-L-pipecolyl-D-([N,N-dimethylglycyl]p-amino)phenyl-alanyl-L-pr olyl]",step yield,[1]; late stage modification step,47%
same,final HPLC purity,[1]; [11],99%
c-[D-2-Nal-L-Ile-D-Pip-L-(Cbz)Pipe-D-His-L-Pro],final HPLC purity,[1]; [6],96%
same,isolated yield,[1]; [7],26%
same,isolated mass,[2]; [8],236 mg
c-[D-Phenylalanyl-L-isoleucyl-D-prolyl-L-transhydroxyprolyl-D-phenylalanyl-L-prolyt],final HPLC purity,[1]; [9],98%
c-[D-Phenylalanyl-L-isoleucyl-D-pipecolyl-L-pipecolyl-D-phenylalanyl-L-prolyl],final HPLC purity,[1]; [6],95.8% pure
"c-[D-Phenylalanyl-L-isoleucyl-D-pipecolyl-L-2,3-diaminopropionyl-N-methyl-D-phenylalanyl-L-prolyl]",final HPLC purity,[1]; [10],99.7% pure
Cyclo[D-Phe-L-Ile-D-Pip-L-(Cbz)Lys-D-His-L-Pro],final HPLC purity,[1]; [4],99%
same,isolated mass,"[1]; whole synthesis, TFA salt",186 mg
same,isolated yield,"[1]; whole synthesis, scale of the general procedure 1 mmole, TFA salt",11%
C-[D-tryptophanyl-L-isolelucyl-D-pipecolyl-L-pipecolyl-D-histidyl-L-prolyl],final HPLC purity,[1]; [6],purity 99%
same,isolated mass,"[1]; whole synthesis, head-to-tail ring",257 mg
same,isolated yield,[1]; [7],33%
c-[D-Phenylaianyl-L-isoleucyl-D-prolyl-L-pipecolyl-N-methyl-D-phenylalanyl-L-prolyl],final HPLC purity,[1]; [6],98.4% pure
c-[D-Tryptophanyl-L-isoleucyl-D-pipecolyl-L-pipecolyl-D-(N-methyl)tyrosyl-L-prolyl],final HPLC purity,[1]; [11],99%
same,step yield,"[1]; late stage modification step, run 1",94% and 53%
c-[D-Phenylalanyl-L-isoleucyl-D-prolyl-L-proyl-D-α-glutaminyl-glycyl],final HPLC purity,[1]; [9],99%
cyclo[D-Trp-L-Phe-D-Pip-L-Pip-D-(NαMe)Phe-L-Pro],final HPLC purity,[1]; [4],purity 99%
same,isolated mass,[1]; whole synthesis,500 mg
same,isolated yield,[1]; [5],65%
c-[D-phenylalanyl-L-isoleucyl-D-Δ-piperazyl-L-arginyl-D-(Nα-methyl)-phenylalanyl-L-prolyl]trifluoroacetate salt,final HPLC purity,"[1]; late stage modification step, HPLC (Method G), trifluoroacetate salt",93.2%
